Laboratory results reported in the supplement of paper PMC8728848.
The list shows a part of the results.

Key:
Assay in all cases: glycan array binding signal (z-score within array); higher = stronger binding
Details in all cases: glycan notation: IUPAC condensed, linker removed
[1] = biological target: Gal3S(b1-4)Glc
Outline: (§1)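 The binding signal is a Z-score computed within each array. Data were drawn from 3228 arrays in the Consortium for Functional Glycomics database, restricted to those with a known protein sequence. Scores were averaged over arrays of the same protein sequence at different concentrations or buffers, and over linkers, and negative values can be taken as non-binding.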

[2] = biological target: Gal3S(b1-4)Glc6S
Outline: as §1

[3] = biological target: Gal3S(b1-4)GlcNAc
Outline: as §1

[4] = biological target: Gal3S(b1-4)[Fuc(a1-3)]Glc6S
Outline: as §1

[5] = biological target: Gal3S(b1-4)[Fuc(a1-3)]GlcNAc
Outline: as §1

[6] = biological target: Gal3S(b1-4)[Fuc(a1-3)]GlcNAc6S
Outline: as §1

[7] = biological target: Gal3S4S(b1-4)GlcNAc
Outline: as §1

[8] = biological target: Gal3S6S(b1-4)GlcNAc
Outline: as §1

[9] = biological target: Gal3S6S(b1-4)GlcNAc6S
Outline: as §1

[10] = biological target: Gal4S(b1-4)GlcNAc
Outline: as §1

[11] = biological target: Gal4S6S(b1-4)GlcNAc
Outline: as §1

[12] = biological target: Gal6P(b1-4)GlcNAc
Outline: as §1

[13] = biological target: Gal6S(b1-3)GlcNAc
Outline: as §1

[14] = biological target: Gal6S(b1-3)GlcNAc6S
Outline: as §1

[15] = biological target: Gal6S(b1-4)Glc
Outline: as §1

[16] = biological target: Gal6S(b1-4)Glc6S
Outline: as §1

[17] = biological target: Gal6S(b1-4)GlcNAc
Outline: as §1

[18] = biological target: Gal6S(b1-4)GlcNAc6S
Outline: as §1

[19] = biological target: GalNAc(a1-3)Gal
Outline: as §1

[20] = biological target: GalNAc(a1-3)GalNAc
Outline: as §1

[21] = biological target: GalNAc(a1-3)GalNAc(a1-3)Gal(a1-4)Gal(b1-4)GlcNAc
Outline: as §1

[22] = biological target: GalNAc(a1-3)GalNAc(b1-3)Gal(a1-4)Gal(b1-4)Glc
Outline: as §1

[23] = biological target: GalNAc(b1-3)Gal
Outline: as §1

[24] = biological target: GalNAc(b1-3)Gal(a1-4)Gal(b1-4)GlcNAc
Outline: as §1

[25] = biological target: GalNAc(b1-3)Gal(a1-4)Gal(b1-4)GlcNAc(b1-3)Gal(b1-4)Glc
Outline: as §1

[26] = biological target: GalNAc(b1-3)Gal(a1-6)Gal(b1-4)Glc
Outline: as §1

[27] = biological target: GalNAc(b1-3)GalNAc
Outline: as §1

[28] = biological target: GalNAc(b1-3)GlcNAc
Outline: as §1

[29] = biological target: GalNAc(b1-4)Gal(b1-4)Glc
Outline: as §1

[30] = biological target: GalNAc(b1-4)GlcNAc
Outline: as §1

B1: Protein L(A-C2) (Finegoldia magna), Q51912 (protein)
chain: ADEPIDLEKLEEKRDKENVGNLPKFDNEVKDGSENPMAKYPDFDDEASTRFETENNEFEEKKVVSDNFFDQSEHPFVENKEETPETPETDSEEEVTIKANLIFANGSTQTAEFKGTFEKATSEAYAYADTLKKDNGEYTVDVADKGYTLNIKFAGKEKTPEEPKEEVTIKANLIYADGKTQTAEFKGTFEEATAEAYRYADALKKDNGEYTVDVADKGYTLNIKFAGKEKTPEEPKEEVTIKANLIYADGKTQTAEFKGTFEEATAEAYRYADLLAKENGKYTVDVADKGYTLNIKFAGKEKTPEEPKEEVTIKANLIYADGKTQTAEFKGTFAEATAEAYRYADLLAKENGKYTADLEDGGYTINIRFAGKKVDEKPEEKEQVTIKENIYFEDGTVQTATFKGTFAEATAEAYRYADLLSKEHGKYTADLEDGGYTINIRFAGKEEPEETPEKPEVQDGYASYEEAEAAAKEALKNDDVNKSYTIRQGADGRYYYVLSPVEAEEEKPEAQNGYATYEEAEAAAKKALENDPINKSYSIRQGADGRYYYVLSPVEAE
glycan array binding signal (z-score) [1]: -0.458 | glycan array binding signal (z-score) [2]: 0.567 | glycan array binding signal (z-score) [3]: -0.821 | glycan array binding signal (z-score) [4]: 1.96 | glycan array binding signal (z-score) [5]: 0.054 | glycan array binding signal (z-score) [6]: -0.503 | glycan array binding signal (z-score) [7]: -0.721 | glycan array binding signal (z-score) [8]: -0.128 | glycan array binding signal (z-score) [9]: -0.311 | glycan array binding signal (z-score) [10]: -0.492 | glycan array binding signal (z-score) [11]: -0.203 | glycan array binding signal (z-score) [12]: -0.824 | glycan array binding signal (z-score) [13]: -1.06 | glycan array binding signal (z-score) [14]: -0.561 | glycan array binding signal (z-score) [15]: -0.354 | glycan array binding signal (z-score) [16]: 1.75 | glycan array binding signal (z-score) [17]: -0.893 | glycan array binding signal (z-score) [18]: -0.607 | glycan array binding signal (z-score) [19]: -0.664 | glycan array binding signal (z-score) [20]: -0.445 | glycan array binding signal (z-score) [21]: -1.15 | glycan array binding signal (z-score) [22]: 0.108 | glycan array binding signal (z-score) [23]: -0.354 | glycan array binding signal (z-score) [24]: -0.837 | glycan array binding signal (z-score) [25]: 0.127 | glycan array binding signal (z-score) [26]: -0.834 | glycan array binding signal (z-score) [27]: -0.192 | glycan array binding signal (z-score) [28]: -0.41 | glycan array binding signal (z-score) [29]: -0.271 | glycan array binding signal (z-score) [30]: -0.004
